Measurements reported in paper PMC10222431.
Construct, isoform or probe ends are uncertain for at least one entry. For part of these data: No signal at the amounts used counts as a negative.

Tests used:
[1] = tested on: MBP-SmSoxS1 (Schistosoma mansoni); assay: EMSA; details: poly dI-dC 0.75 ug, LightShift EMSA kit, 200 fmol biotin probe, 12.4 ug MBP-SmSoxS1, 0.75 ug poly dI-dC, 30 min, 5% native PAGE 0.5x TBE, pH and temperature not stated, recombinant protein, protein details: N-terminal MBP (pMAL-c5X), label: biotin (unlabeled version as competitor)
[2] = tested on: MBP-SmSoxS1 (Schistosoma mansoni); assay: competition with a labelled probe; details: nonspecific control sequence, competitor 1000x (200 pmol vs 200 fmol probe); LightShift EMSA kit, 200 fmol biotin probe, 12.4 ug MBP-SmSoxS1, 0.75 ug poly dI-dC, 30 min; 5% native PAGE 0.5x TBE; pH and temperature not stated; recombinant protein; protein details: N-terminal MBP (pMAL-c5X)

Sequence: TATCAATTTGACGTTACATTGATGGTTTATTGTGATGGG (double strand) [SmSOXS1 upstream Sox element probe]
- binding result ([1]; stronger than SmFGF4 probe): binds

Sequence: GCCGATCCGCATTTTGTGACATCCTTCAGC (double strand) [NDT80 element (AT014)]
- binding result [2]: no binding

Sequence: AGCTTCTCGAGCTGCTCTTTGTTTGGTTACTCTAAATAC (double strand) [SmFGF4 upstream Sox element probe]
- binding result ([1]; weaker than SmSOXS1 probe but effective): binds
